# Experimental data published in patent US20160067212A1, “USE OF INSULIN SIGNALING ANTAGONISTS, OPTIONALLY IN COMBINATION OF TRANSFECTION OF NON-BETA CELLS, FOR INDUCING INSULIN PRODUCTION” (UNIVERSITE DE GENEVE, priority 2013, published 2016).
# Part of at least one peptide drawing is inferred or uncertain, most often the ends. Bridges are numbered along the chain shown (N, C = ends). Where no end group is shown, it is not given here.
# Test system: Pdx1-expressing α-cells
# Assay: Insulin production in Pdx1-expressing α-cells of adult mice with normal β-cell mass after in vivo inhibition of insulin signaling
# Conditions: FIG. 7B
# Protocol: DT (Sigma) was administrated by intra-peritoneal (i.p.) injections as previously described (Thorel et al., 2010, supra). DOX (1 mg/ml; Sigma) was added to the drinking water. S961 (Novo-Nordisk) (Vikram and Jena, 2010, Biochem Biophys Res Commun. 398(2):260-5) was injected intravenously (i.v.) twice a day at 200-nmol/kg-body weight, for 4 consecutive days. PPP (Santa-Cruz) and Wortmannin (Sigma) were injected i.p. once a day for 5 consecutive days at 10-mg/kg-body weight and 1-mg/kg-body weight, respectively. Mice received subcutaneous insulin pellets (Linbit) one week apart, if glycaemia exceeded 25 mM.
# Pancreatic glucagon and insulin dosages (immunoassays), gene expression analyses by real time PCR as well as histological and morphometric analyses were performed as described (Herrera et al, 1991, Development. 113(4):1257-65; Strom et al, 2007, Development. 134(15):2719-25).
# Cryostat sections were 10 μm-thick. The antibodies used were: rabbit and guinea pig anti-Pdx1 (kind gift of C. Wright, 1/5000 and 1/750 respectively), guinea pig anti-porcine insulin (DAKO, 1/400), mouse anti-porcine glucagon (1/1000), mouse anti-somatostatin (BCBC Ab1985, 1/200), rabbit anti-GFP (Molecular Probes, 1/400), rabbit anti-Cpeptide1 (BCBC Ab1044, 1/500), rabbit anti-Cpeptide2 (BCBC Ab1042, 1/500). […]
sequence,measurement,setting,value
GSLDESFYDWFERQLGGGSGGSSLEEEWAQIQCEVWGRGCPSY (disulfide 33-40) [S961],Pdx1-expressing α-cells producing insulin,"healthy adult mice, normal β-cell mass, 5-day treatment",~18%
same,insulin production triggered in Pdx1-expressing α-cells (in words),in vivo administration to mice expressing Pdx1 in α-cells,produce insulin
